Measurements from paper PMC7981807.
These are yes or no findings as the source states them, for the method shown. In cells and extracts the contact can be indirect. Binding can be weak; no strength is given.

Target: NCOR (nuclear receptor corepressor), endogenous (human (endogenous in REH and Nalm6))
Test: proximity ligation; Duolink PLA on endogenous proteins, dots per nucleus, in REH cells, Nalm6 cells and BCP-ALL patients' cells; cut-off two S.D. over the negative control, Fisher's exact test

B1: CBFA2T3 (Core-Binding Factor Runt Domain Alpha Subunit 2 Translocated To 3), endogenous (protein, UniProt O75081 1-653)
chain: MPASRLRDRAASSASGSTCGSMSQTHPVLESGLLASAGCSAPRGPRKGGPAPVDRKAKASAMPDSPAEVKTQPRSTPPSMPPPPPAASQGATRPPSFTPHTHREDGPATLPHGRFHGCLKWSMVCLLMNGSSHSPTAINGAPCTPNGFSNGPATSSTASLSTQHLPPACGARQLSKLKRFLTTLQQFGSDISPEIGERVRTLVLGLVNSTLTIEEFHSKLQEATNFPLRPFVIPFLKANLPLLQRELLHCARLAKQTPAQYLAQHEQLLLDASASSPIDSSELLLEVNENGKRRTPDRTKENGSDRDPLHPEHLSKRPCTLNPAQRYSPSNGPPQPTPPPHYRLEDIAMAHHFRDAYRHPDPRELRERHRPLVVPGSRQEEVIDHKLTEREWAEEWKHLNNLLNCIMDMVEKTRRSLTVLRRCQEADREELNHWARRYSDAEDTKKGPAPAAARPRSSSAGPEGPQLDVPREFLPRTLTGYVPEDIWRKAEEAVNEVKRQAMSELQKAVSDAERKAHELITTERAKMERALAEAKRQASEDALTVINQQEDSSESCWNCGRKASETCSGCNAARYCGSFCQHRDWEKHHHVCGQSLQGPTAVVADPVPGPPEAAHSLGPSLPVGAASPSEAGSAGPSRPGSPSPPGPLDTVPR
binding: binds
